# Test results published in the supplement of paper PMC6411743.
# ± gives the standard deviation of the averaged measurements. This is a selection; strong and weak results do not stand in their true shares.
# Experiments:
# Assay in all cases: NP40-soluble protein abundance relative to vehicle (solubility fold change) (ratio); higher = more soluble protein in presence of AMP-PNP
# UQCRFS1 = biological target: T1, UQCRFS1 (UniProt P47985)
# T1 sequence (whole entry): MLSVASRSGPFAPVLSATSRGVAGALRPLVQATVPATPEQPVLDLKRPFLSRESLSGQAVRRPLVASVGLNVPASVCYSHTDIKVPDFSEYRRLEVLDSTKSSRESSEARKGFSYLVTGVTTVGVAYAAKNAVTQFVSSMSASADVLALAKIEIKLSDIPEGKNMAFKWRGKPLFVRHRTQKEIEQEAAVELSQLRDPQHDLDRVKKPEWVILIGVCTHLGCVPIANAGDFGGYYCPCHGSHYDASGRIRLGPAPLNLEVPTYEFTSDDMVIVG
# How it was run: (§1)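 Eight concentrations, 0.1 to 10 mM, were tested on Jurkat crude lysate for 10 min at room temperature and then 3 min at 37 °C, in three independent experiments. The lysate was solubilised with 0.8% NP40 and benzonase, ultracentrifuged, and the supernatant TMT-labelled for LC-MS/MS. Each value is the fold change against the detergent-processed vehicle in its own replicate, from vsn-normalised intensities.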
# [1] = biological target: T2, UniProt P49754 and related entries
# T2 sequence (whole entry): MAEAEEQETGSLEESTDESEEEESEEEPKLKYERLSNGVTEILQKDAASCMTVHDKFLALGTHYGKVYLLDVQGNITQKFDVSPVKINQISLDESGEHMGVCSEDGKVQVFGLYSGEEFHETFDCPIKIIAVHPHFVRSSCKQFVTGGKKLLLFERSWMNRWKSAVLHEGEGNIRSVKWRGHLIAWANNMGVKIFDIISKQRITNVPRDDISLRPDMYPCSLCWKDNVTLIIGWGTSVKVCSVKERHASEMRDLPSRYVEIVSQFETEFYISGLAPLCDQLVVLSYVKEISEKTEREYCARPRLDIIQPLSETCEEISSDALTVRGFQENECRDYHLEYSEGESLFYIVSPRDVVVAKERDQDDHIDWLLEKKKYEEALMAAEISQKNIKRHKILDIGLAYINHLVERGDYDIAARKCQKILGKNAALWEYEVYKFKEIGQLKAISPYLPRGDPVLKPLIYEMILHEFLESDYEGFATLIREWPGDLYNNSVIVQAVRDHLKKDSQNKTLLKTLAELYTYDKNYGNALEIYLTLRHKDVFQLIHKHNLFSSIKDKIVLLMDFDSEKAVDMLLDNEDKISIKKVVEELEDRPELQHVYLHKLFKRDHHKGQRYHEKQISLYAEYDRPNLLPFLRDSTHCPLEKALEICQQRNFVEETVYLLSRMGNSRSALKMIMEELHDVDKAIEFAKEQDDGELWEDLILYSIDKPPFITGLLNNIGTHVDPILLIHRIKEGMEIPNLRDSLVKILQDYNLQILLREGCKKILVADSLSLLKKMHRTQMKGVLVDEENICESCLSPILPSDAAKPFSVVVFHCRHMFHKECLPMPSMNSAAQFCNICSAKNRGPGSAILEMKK
# How it was run: as §1
# [2] = biological target: T3, UniProt P50395 and related entries
# T3 sequence (whole entry): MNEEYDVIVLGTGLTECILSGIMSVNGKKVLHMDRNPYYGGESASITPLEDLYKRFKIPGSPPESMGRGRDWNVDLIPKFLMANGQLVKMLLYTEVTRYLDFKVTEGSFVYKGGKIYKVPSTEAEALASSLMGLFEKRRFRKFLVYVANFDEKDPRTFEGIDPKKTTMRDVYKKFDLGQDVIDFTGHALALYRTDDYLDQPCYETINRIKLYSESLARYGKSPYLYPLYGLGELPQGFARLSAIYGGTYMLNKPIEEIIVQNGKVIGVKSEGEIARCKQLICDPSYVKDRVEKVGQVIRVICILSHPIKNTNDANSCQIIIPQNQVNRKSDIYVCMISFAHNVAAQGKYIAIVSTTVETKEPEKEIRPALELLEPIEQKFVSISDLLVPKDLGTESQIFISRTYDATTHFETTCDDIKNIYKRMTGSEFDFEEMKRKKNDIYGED
# How it was run: as §1
# [3] = biological target: T4, UniProt P51178 and related entries
# T4 sequence (whole entry): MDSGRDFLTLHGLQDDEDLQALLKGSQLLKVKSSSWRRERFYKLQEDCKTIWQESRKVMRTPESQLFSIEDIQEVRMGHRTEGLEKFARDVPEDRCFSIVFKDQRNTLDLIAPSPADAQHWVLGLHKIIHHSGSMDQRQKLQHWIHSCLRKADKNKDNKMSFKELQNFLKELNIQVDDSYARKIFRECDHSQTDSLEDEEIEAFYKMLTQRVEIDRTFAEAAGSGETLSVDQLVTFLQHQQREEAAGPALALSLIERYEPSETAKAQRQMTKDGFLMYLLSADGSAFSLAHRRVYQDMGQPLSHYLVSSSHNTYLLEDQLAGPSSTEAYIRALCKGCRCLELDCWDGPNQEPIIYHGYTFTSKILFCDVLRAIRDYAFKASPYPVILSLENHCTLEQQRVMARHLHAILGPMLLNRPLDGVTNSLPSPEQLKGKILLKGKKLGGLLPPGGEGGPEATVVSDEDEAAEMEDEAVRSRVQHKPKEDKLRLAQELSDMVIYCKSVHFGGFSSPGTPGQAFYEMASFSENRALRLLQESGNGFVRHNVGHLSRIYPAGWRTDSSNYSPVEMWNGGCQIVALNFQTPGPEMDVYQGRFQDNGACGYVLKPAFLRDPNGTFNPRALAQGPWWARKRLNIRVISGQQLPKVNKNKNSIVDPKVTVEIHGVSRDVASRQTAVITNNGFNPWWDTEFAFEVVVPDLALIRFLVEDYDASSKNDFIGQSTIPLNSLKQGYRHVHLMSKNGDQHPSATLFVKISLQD
# How it was run: as §1
# UniProt P52209-2 = biological target: T5, UniProt P52209-2
# T5 sequence (whole entry): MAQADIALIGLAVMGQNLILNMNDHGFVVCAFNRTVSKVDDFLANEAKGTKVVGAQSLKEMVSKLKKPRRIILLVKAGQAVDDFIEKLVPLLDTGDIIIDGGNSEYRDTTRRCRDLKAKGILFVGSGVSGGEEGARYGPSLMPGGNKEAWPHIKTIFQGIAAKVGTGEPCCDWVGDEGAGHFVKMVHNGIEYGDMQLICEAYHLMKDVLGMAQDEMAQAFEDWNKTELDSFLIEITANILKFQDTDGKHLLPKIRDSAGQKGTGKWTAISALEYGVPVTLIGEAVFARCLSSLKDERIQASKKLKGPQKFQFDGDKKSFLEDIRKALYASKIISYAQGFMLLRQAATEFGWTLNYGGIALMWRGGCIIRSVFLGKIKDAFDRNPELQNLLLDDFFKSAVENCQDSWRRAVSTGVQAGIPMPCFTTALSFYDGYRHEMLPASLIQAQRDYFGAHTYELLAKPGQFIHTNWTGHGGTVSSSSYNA
# How it was run: as §1
# [4] = biological target: T6, UniProt P52594 and related entries
# T6 sequence (whole entry): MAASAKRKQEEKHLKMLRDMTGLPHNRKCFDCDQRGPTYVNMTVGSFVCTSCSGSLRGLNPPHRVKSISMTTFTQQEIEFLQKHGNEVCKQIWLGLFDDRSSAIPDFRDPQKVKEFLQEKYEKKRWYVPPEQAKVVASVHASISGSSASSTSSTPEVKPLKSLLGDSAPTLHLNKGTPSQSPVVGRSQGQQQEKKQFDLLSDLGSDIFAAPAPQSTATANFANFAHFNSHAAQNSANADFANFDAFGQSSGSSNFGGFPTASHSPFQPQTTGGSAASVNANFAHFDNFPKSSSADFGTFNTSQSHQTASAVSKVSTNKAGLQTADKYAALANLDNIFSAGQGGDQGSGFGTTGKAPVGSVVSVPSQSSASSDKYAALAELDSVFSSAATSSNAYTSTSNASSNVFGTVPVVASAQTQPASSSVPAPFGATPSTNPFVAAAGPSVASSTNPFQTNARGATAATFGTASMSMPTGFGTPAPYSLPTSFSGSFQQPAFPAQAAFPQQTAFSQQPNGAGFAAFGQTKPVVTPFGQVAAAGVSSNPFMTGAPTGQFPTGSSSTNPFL
# How it was run: as §1
smiles,measurement,setting,value
Nc1ncnc2c1ncn2[C@@H]1O[C@H](COP(=O)(O)OP(=O)(O)NP(=O)(O)O)[C@@H](O)[C@H]1O [adenylyl imidodiphosphate],NP40-soluble protein abundance,UQCRFS1; concentration: 6mM,0.989 ± 0.052
same,NP40-soluble protein abundance,UQCRFS1; concentration: 8mM,0.985 ± 0.077
same,NP40-soluble protein abundance,UQCRFS1; concentration: 10mM,0.968 ± 0.05
same,NP40-soluble protein abundance,[1]; concentration: 1mM,0.962 ± 0.053
same,NP40-soluble protein abundance,[1]; concentration: 2mM,0.902 ± 0.046
same,NP40-soluble protein abundance,[1]; concentration: 4mM,0.919 ± 0.0064
same,NP40-soluble protein abundance,[1]; concentration: 6mM,0.871 ± 0.021
same,NP40-soluble protein abundance,[1]; concentration: 8mM,0.863 ± 0.034
same,NP40-soluble protein abundance,[1]; concentration: 10mM,0.834 ± 0.032
same,NP40-soluble protein abundance,[2]; concentration: 1mM,0.986 ± 0.031
same,NP40-soluble protein abundance,[2]; concentration: 2mM,0.918 ± 0.081
same,NP40-soluble protein abundance,[2]; concentration: 4mM,0.9669 ± 0.0071
same,NP40-soluble protein abundance,[2]; concentration: 6mM,0.951 ± 0.035
same,NP40-soluble protein abundance,[2]; concentration: 8mM,0.978 ± 0.027
same,NP40-soluble protein abundance,[2]; concentration: 10mM,0.934 ± 0.037
same,NP40-soluble protein abundance,[3]; concentration: 1mM,0.984 ± 0.025
same,NP40-soluble protein abundance,[3]; concentration: 2mM,0.944 ± 0.062
same,NP40-soluble protein abundance,[3]; concentration: 4mM,0.975 ± 0.034
same,NP40-soluble protein abundance,[3]; concentration: 6mM,0.968 ± 0.029
same,NP40-soluble protein abundance,[3]; concentration: 8mM,0.967 ± 0.018
same,NP40-soluble protein abundance,[3]; concentration: 10mM,0.949 ± 0.041
same,NP40-soluble protein abundance,UniProt P52209-2; concentration: 1mM,0.985 ± 0.033
same,NP40-soluble protein abundance,UniProt P52209-2; concentration: 2mM,0.964 ± 0.027
same,NP40-soluble protein abundance,UniProt P52209-2; concentration: 4mM,0.961 ± 0.043
same,NP40-soluble protein abundance,UniProt P52209-2; concentration: 6mM,1.02 ± 0.067
same,NP40-soluble protein abundance,UniProt P52209-2; concentration: 8mM,1.01 ± 0.051
same,NP40-soluble protein abundance,UniProt P52209-2; concentration: 10mM,1.02 ± 0.035
same,NP40-soluble protein abundance,[4]; concentration: 1mM,1.03 ± 0.036
same,NP40-soluble protein abundance,[4]; concentration: 2mM,1.04 ± 0.081
same,NP40-soluble protein abundance,[4]; concentration: 4mM,1.02 ± 0.059
same,NP40-soluble protein abundance,[4]; concentration: 6mM,1.05 ± 0.046

# Given as tab-separated lines: part of the list above
smiles	measurement	setting	value
Nc1ncnc2c1ncn2[C@@H]1O[C@H](COP(=O)(O)OP(=O)(O)NP(=O)(O)O)[C@@H](O)[C@H]1O [adenylyl imidodiphosphate]	NP40-soluble protein abundance	UniProt P52209-2; concentration: 8mM	1.01 ± 0.051
same	NP40-soluble protein abundance	UniProt P52209-2; concentration: 10mM	1.02 ± 0.035
